Assay results reported in patent US20200340060A1, “COMPOSITIONS AND METHODS FOR IDENTIFYING AND TREATING LIVER DISEASES AND MONITORING TREATMENT OUTCOMES” (Gilead Sciences, Inc., priority 2017, published 2020).

Assay: SOMAscan serum proteomics in NASH subjects treated with selonsertib/simtuzumab, baseline and week 24
Parameters: species or system human
Details: serum protein marker level, week 24 vs baseline; for Median percent CHG at W24 in improver: hepatic ballooning improvers; for Median percent CHG at W24 in Non-improver: hepatic ballooning non-improvers

Molecule | Median percent CHG at W24 in improver [%] | Median percent CHG at W24 in Non-improver [%]
Thyroxine-Binding Globulin (protein, UniProt P05543 21-415, looked up) Thyroxine-binding globulin: ASPEGKVTACHSSQPNATLYKMSSINADFAFNLYRRFTVETPDKNIFFSPVSISAALVMLSFGACCSTQTEIVETLGFNLTDTPMVEIQHGFQHLICSLNFPKKELELQIGNALFIGKHLKPLAKFLNDVKTLYETEVFSTDFSNISAAKQEINSHVEMQTKGKVVGLIQDLKPNTIMVLVNYIHFKAQWANPFDPSKTEDSSSFLIDKTTTVQVPMMHQMEQYYHLVDMELNCTVLQMDYSKNALALFVLPKEGQMESVEAAMSSKTLKKWNRLLQKGWVDLFVPKFSISATYDLGATLLKMGIQHAYSENADFSGLTEDNGLKLSNAAHKAVLHIGEKGTEAAAVPEVELSDQPENTFLHPIIQIDRSFMLLILERSTRSILFLGKVVNPTEA | −7.58 | −1.5
XEDAR (protein, UniProt Q9HAV5 1-297, looked up) Tumor necrosis factor …: MDCQENEYWDQWGRCVTCQRCGPGQELSKDCGYGEGGDAYCTACPPRRYKSSWGHHRCQSCITCAVINRVQKVNCTATSNAVCGDCLPRFYRKTRIGGLQDQECIPCTKQTPTSEVQCAFQLSLVEADTPTVPPQEATLVALVSSLLVVFTLAFLGLFFLYCKQFFNRHCQRGGLLQFEADKTAKEESLFPVPPSKETSAESQVSENIFQTQPLNPILEDDCSSTSGFPTQESFTMASCTSESHSHWVHSPIECTELDLQKFSSSASYTGAETLGGNTVESTGDRLELNVPFEVPSP | 1.66 | −0.875
Eotaxin-2 (protein, UniProt O00175 27-119, looked up) C-C motif chemokine 24: VVIPSPCCMFFVSKRIPENRVVSYQLSSRSTCLKAGVIFTTKKGQQFCGDPKQEWVQRYMKNLDAKQKKASPRARAVAVKGPVQRYPGNQTTC | 4.07 | −0.04
Topoisomerase I (protein, UniProt P11387 2-765, looked up) DNA topoisomerase 1: SGDHLHNDSQIEADFRLNDSHKHKDKHKDREHRHKEHKKEKDREKSKHSNSEHKDSEKKHKEKEKTKHKDGSSEKHKDKHKDRDKEKRKEEKVRASGDAKIKKEKENGFSSPPQIKDEPEDDGYFVPPKEDIKPLKRPRDEDDADYKPKKIKTEDTKKEKKRKLEEEEDGKLKKPKNKDKDKKVPEPDNKKKKPKKEEEQKWKWWEEERYPEGIKWKFLEHKGPVFAPPYEPLPENVKFYYDGKVMKLSPKAEEVATFFAKMLDHEYTTKEIFRKNFFKDWRKEMTNEEKNIITNLSKCDFTQMSQYFKAQTEARKQMSKEEKLKIKEENEKLLKEYGFCIMDNHKERIANFKIEPPGLFRGRGNHPKMGMLKRRIMPEDIIINCSKDAKVPSPPPGHKWKEVRHDNKVTWLVSWTENIQGSIKYIMLNPSSRIKGEKDWQKYETARRLKKCVDKIRNQYREDWKSKEMKVRQRAVALYFIDKLALRAGNEKEEGETADTVGCCSLRVEHINLHPELDGQEYVVEFDFLGKDSIRYYNKVPVEKRVFKNLQLFMENKQPEDDLFDRLNTGILNKHLQDLMEGLTAKVFRTYNASITLQQQLKELTAPDENIPAKILSYNRANRAVAILCNHQRAPPKTFEKSMMNLQTKIDAKKEQLADARRDLKSAKADAKVMKDAKTKKVVESKKKAVQRLEEQLMKLEVQATDREENKQIALGTSKLNYLDPRITVAWCKKWGVPIEKIYNKTQREKFAWAIDMADEDYEF | −13.48 | 6.47
Heparin cofactor II (protein, UniProt P05546 20-499, looked up) Heparin cofactor 2: GSKGPLDQLEKGGETAQSADPQWEQLNNKNLSMPLLPADFHKENTVTNDWIPEGEEDDDYLDLEKIFSEDDDYIDIVDSLSVSPTDSDVSAGNILQLFHGKSRIQRLNILNAKFAFNLYRVLKDQVNTFDNIFIAPVGISTAMGMISLGLKGETHEQVHSILHFKDFVNASSKYEITTIHNLFRKLTHRLFRRNFGYTLRSVNDLYIQKQFPILLDFKTKVREYYFAEAQIADFSDPAFISKTNNHIMKLTKGLIKDALENIDPATQMMILNCIYFKGSWVNKFPVEMTHNHNFRLNEREVVKVSMMQTKGNFLAANDQELDCDILQLEYVGGISMLIVVPHKMSGMKTLEAQLTPRVVERWQKSMTNRTREVLLPKFKLEKNYNLVESLKLMGIRMLFDKNGNMAGISDQRIAIDLFKHQGTITVNEEGTQATTVTTVGFMPLSTQVRFTVDRPFLFLIYEHRTSCLLFMGRVANPSRS | 3.88 | −1.345
IL-13 Ra1 (protein, UniProt P78552 22-427, looked up) Interleukin-13 receptor …: GGGGAAPTETQPPVTNLSVSVENLCTVIWTWNPPEGASSNCSLWYFSHFGDKQDKKIAPETRRSIEVPLNERICLQVGSQCSTNESEKPSILVEKCISPPEGDPESAVTELQCIWHNLSYMKCSWLPGRNTSPDTNYTLYYWHRSLEKIHQCENIFREGQYFGCSFDLTKVKDSSFEQHSVQIMVKDNAGKIKPSFNIVPLTSRVKPDPPHIKNLSFHNDDLYVQWENPQNFISRCLFYEVEVNNSQTETHNVFYVQEAKCENPEFERNVENTSCFMVPGVLPDTLNTVRIRVKTNKLCYEDDKLWSNWSQEMSIGKKRNSTLYITMLLIVPVIVAGAIIVLLLYLKRLKIIIFPPIPDPGKIFKEMFGDQNDDTLHWKKYDIYEKQTKEETDSVVLIENLKKASQ | 5.91 | −0.565
EphA1 (protein, UniProt P21709 26-976, looked up) Ephrin type-A receptor 1: KEVTLMDTSKAQGELGWLLDPPKDGWSEQQQILNGTPLYMYQDCPMQGRRDTDHWLRSNWIYRGEEASRVHVELQFTVRDCKSFPGGAGPLGCKETFNLLYMESDQDVGIQLRRPLFQKVTTVAADQSFTIRDLVSGSVKLNVERCSLGRLTRRGLYLAFHNPGACVALVSVRVFYQRCPETLNGLAQFPDTLPGPAGLVEVAGTCLPHARASPRPSGAPRMHCSPDGEWLVPVGRCHCEPGYEEGGSGEACVACPSGSYRMDMDTPHCLTCPQQSTAESEGATICTCESGHYRAPGEGPQVACTGPPSAPRNLSFSASGTQLSLRWEPPADTGGRQDVRYSVRCSQCQGTAQDGGPCQPCGVGVHFSPGARGLTTPAVHVNGLEPYANYTFNVEAQNGVSGLGSSGHASTSVSISMGHAESLSGLSLRLVKKEPRQLELTWAGSRPRSPGANLTYELHVLNQDEERYQMVLEPRVLLTELQPDTTYIVRVRMLTPLGPGPFSPDHEFRTSPPVSRGLTGGEIVAVIFGLLLGAALLLGILVFRSRRAQRQRQQRQRDRATDVDREDKLWLKPYVDLQAYEDPAQGALDFTRELDPAWLMVDTVIGEGEFGEVYRGTLRLPSQDCKTVAIKTLKDTSPGGQWWNFLREATIMGQFSHPHILHLEGVVTKRKPIMIITEFMENGALDAFLREREDQLVPGQLVAMLQGIASGMNYLSNHNYVHRDLAARNILVNQNLCCKVSDFGLTRLLDDFDGTYETQGGKIPIRWTAPEAIAHRIFTTASDVWSFGIVMWEVLSFGDKPYGEMSNQEVMKSIEDGYRLPPPVDCPAPLYELMKNCWAYDRARRPHFQKLQAHLEQLLANPHSLRTIANFDPRMTLRLPSLSGSDGIPYRTVSEWLESIRMKRYILHFHSAGLDTMECVLELTAEDLTQMGITLPGHQKRILCSIQGFKD | 8.65 | 1.83
HINT1 (protein, UniProt P49773 2-126, looked up) Adenosine …: ADEIAKAQVARPGGDTIFGKIIRKEIPAKIIFEDDRCLAFHDISPQAPTHFLVIPKKHISQISVAEDDDESLLGHLMIVGKKCAADLGLNKGYRMVVNEGSDGGQSVYHVHLHVLGGRQMHWPPG | −30.56 | −10.655
kallikrein 12 (protein, UniProt Q9UKR0 18-248, looked up) Kallikrein-12: ATPKIFNGTECGRNSQPWQVGLFEGTSLRCGGVLIDHRWVLTAAHCSGSRYWVRLGEHSLSQLDWTEQIRHSGFSVTHPGYLGASTSHEHDLRLLRLRLPVRVTSSVQPLPLPNDCATAGTECHVSGWGITNHPRNPFPDLLQCLNLSIVSHATCHGVYPGRITSNMVCAGGVPGQDACQGDSGGPLVCGGVLQGLVSWGSVGPCGQDGIPGVYTYICKYVDWIRMIMRNN | 3.44 | −1.51
Lymphotoxin b R (protein, UniProt P36941 31-435, looked up) Tumor necrosis factor …: QAVPPYASENQTCRDQEKEYYEPQHRICCSRCPPGTYVSAKCSRIRDTVCATCAENSYNEHWNYLTICQLCRPCDPVMGLEEIAPCTSKRKTQCRCQPGMFCAAWALECTHCELLSDCPPGTEAELKDEVGKGNNHCVPCKAGHFQNTSSPSARCQPHTRCENQGLVEAAPGTAQSDTTCKNPLEPLPPEMSGTMLMLAVLLPLAFFLLLATVFSCIWKSHPSLCRKLGSLLKRRPQGEGPNPVAGSWEPPKAHPYFPDLVQPLLPISGDVSPVSTGLPAAPVLEAGVPQQQSPLDLTREPQLEPGEQSQVAHGTNGIHVTGGSMTITGNIYIYNGPVLGGPPGPGDLPATPEPPYPIPEEGDPGPPGLSTPHQEDGKAWHLAETEHCGATPSNRGPRNQFITHD | 3.35 | −0.575
Fucosyltransferase 3 (protein, UniProt P21217 1-361, looked up) 3-galactosyl-N-acetylglucosami …: MDPLGAAKPQWPWRRCLAALLFQLLVAVCFFSYLRVSRDDATGSPRAPSGSSRQDTTPTRPTLLILLRTWPFHIPVALSRCSEMVPGTADCHITADRKVYPQADMVIVHHWDIMSNPKSRLPPSPRPQGQRWIWFNLEPPPNCQHLEALDRYFNLTMSYRSDSDIFTPYGWLEPWSGQPAHPPLNLSAKTELVAWAVSNWKPDSARVRYYQSLQAHLKVDVYGRSHKPLPKGTMMETLSRYKFYLAFENSLHPDYITEKLWRNALEAWAVPVVLGPSRSNYERFLPPDAFIHVDDFQSPKDLARYLQELDKDHARYLSYFRWRETLRPRSFSWALDFCKACWKLQQESRYQTVRSIAAWFT | −1.89 | 3.205
Myeloperoxidase (protein, UniProt P05164 165-745, looked up) Myeloperoxidase: VTCPEQDKYRTITGMCNNRRSPTLGASNRAFVRWLPAEYEDGFSLPYGWTPGVKRNGFPVALARAVSNEIVRFPTDQLTPDQERSLMFMQWGQLLDHDLDFTPEPAARASFVTGVNCETSCVQQPPCFPLKIPPNDPRIKNQADCIPFFRSCPACPGSNITIRNQINALTSFVDASMVYGSEEPLARNLRNMSNQLGLLAVNQRFQDNGRALLPFDNLHDDPCLLTNRSARIPCFLAGDTRSSEMPELTSMHTLLLREHNRLATELKSLNPRWDGERLYQEARKIVGAMVQIITYRDYLPLVLGPTAMRKYLPTYRSYNDSVDPRIANVFTNAFRYGHTLIQPFMFRLDNRYQPMEPNPRVPLSRVFFASWRVVLEGGIDPILRGLMATPAKLNRQNQIAVDEIRERLFEQVMRIGLDLPALNMQRSRDHGLPGYNAWRRFCGLPQPETVGQLGTVLRNLKLARKLMEQYGTPNNIDIWMGGVSEPLKRKGRVGPLLACIIGTQFRKLRDGDRFWWENEGVFSMQQRQALAQISLPRIICDNTGITTVSKNNIFMSNSYPRDFVNCSTLPALNLASWREAS | −17.96 | −9.61
